Measurements: patent EP4695300A2 (dated 2026)
No constants are given. Whether binding was seen depends on the method and setting. Some results given as binding are weak or reduced against the parent protein; the word gives no strength. Sequences can lack the tags named with a protein.

Experiments:
[1] = target: T1, Prostaglandin F2 Receptor Inhibitor (PTGFRN), expressed by cells (human) (UniProt Q9P2B2); assay: flow binding on cells
T1 sequence (looked up): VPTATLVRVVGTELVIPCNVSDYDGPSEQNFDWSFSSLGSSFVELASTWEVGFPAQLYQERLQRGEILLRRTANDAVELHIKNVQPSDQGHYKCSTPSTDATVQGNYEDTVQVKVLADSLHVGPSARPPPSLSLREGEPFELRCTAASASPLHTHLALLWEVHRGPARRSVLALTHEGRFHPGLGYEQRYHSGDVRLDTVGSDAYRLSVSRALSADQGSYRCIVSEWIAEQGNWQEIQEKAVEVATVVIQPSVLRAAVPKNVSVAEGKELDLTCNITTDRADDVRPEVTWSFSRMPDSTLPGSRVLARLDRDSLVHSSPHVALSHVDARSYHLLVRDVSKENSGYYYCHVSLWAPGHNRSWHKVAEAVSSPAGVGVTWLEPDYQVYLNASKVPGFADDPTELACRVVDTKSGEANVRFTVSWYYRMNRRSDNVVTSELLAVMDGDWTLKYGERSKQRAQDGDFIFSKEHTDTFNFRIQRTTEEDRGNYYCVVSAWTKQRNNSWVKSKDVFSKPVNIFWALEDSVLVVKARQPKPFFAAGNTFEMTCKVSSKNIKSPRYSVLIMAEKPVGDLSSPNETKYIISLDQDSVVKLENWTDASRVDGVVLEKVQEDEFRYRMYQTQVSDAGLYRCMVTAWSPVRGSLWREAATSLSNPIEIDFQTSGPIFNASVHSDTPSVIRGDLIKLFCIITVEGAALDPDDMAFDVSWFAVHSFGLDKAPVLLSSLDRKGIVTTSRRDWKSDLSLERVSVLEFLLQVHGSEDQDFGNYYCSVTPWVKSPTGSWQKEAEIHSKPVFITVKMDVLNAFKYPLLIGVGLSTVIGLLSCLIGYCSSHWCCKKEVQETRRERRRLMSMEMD

[2] = target: T1, Prostaglandin F2 Receptor Inhibitor (PTGFRN), expressed by cells (human); assay: immunofluorescence on cells
[3] = target: T1, Prostaglandin F2 Receptor Inhibitor (PTGFRN), expressed by cells (human); assay: flow cytometry on A431, DAOY and MSTO-211H clones with PTGFRN knocked down or overexpressed
[4] = target: T1, Prostaglandin F2 Receptor Inhibitor (PTGFRN), expressed by cells (human); assay: flow cytometry on cells

binding [1]: binds
binding [2]: binds
binding [3]: binds
binding [4]: binds
B1: fully human anti-PTGFRN monoclonal antibody 8C7 (antibody, V domains shown)
VH: QLQLQESGPGLVKPSETLSLTCTVSGGSISSSSYYWGWIRQPPGKGLEWIGSIYYGGSTYYNPSLKSRVTISVDTSTNQFSLKLNSVTAADTAVYYCARQGLGSFDCWGQGTLVTVSS
VL: DVVMTQSPLSLPVTLGQPASISCRSSQSLVHSDGNTYLNWFQQRPGQSPRRLIYKVSNRDSGVPDRFSGSGSGTDFTLKISGVEAEDVGIYYCMQGTHWPPLTFGGGTKVEIK
notes: also called anti-PTGFRN antibody 8C7; internalizing anti-PTGFRN 8C7
